Patent publication US20250223301A1, “KINASE INHIBITORS, PREPARATION METHODS AND USES THEREOF” (InventisBio Co., Ltd., priority 2022, published 2025)

System: PBMC
Assay: Human PBMC IL-2 assay
Settings: read-out: PBMC IL-2 assay EC50, anti-CD3/CD28 stimulation overnight, IL-2 level

CC[C@@H]1C[C@@H](Oc2ccc(OC(F)(F)F)cc2)CCN1c1nc(=O)n(C)c2ccc(C#N)nc12
EC50: 918 nM

Structures were worked out from names or drawings and are uncertain.
